Test results taken from PubChem BioAssay AID540256 (National Center for Advancing Translational Sciences (NCATS), 2011).
Values joined by “and” are separate entries in the source; they are usually repeats but may differ in a detail not shown here. Equal values may be shown once. Among all 300,000 compounds or so, about 3,700 (1.2%) were called active. Inconclusive means that the source gave no clear call. Such entries were picked first, then a sample of the others. The call rests on the fitted dose curve; tested in HEK293 cells. A potency beside an inconclusive call is a rough fit, not a confirmed value.

Experiment: qHTS for Inhibitors of binding or entry into cells for Lassa Virus; further: nearly all actives have a fitted effect of over 50% in size
Conditions: Lassa virus pseudotype entry inhibition, cell reporter; series mostly up to 37.9 µM
Potency means the concentration at half of the fitted maximal effect.

Question: Which Potency does the source give for `COc1ccc(-n2ncc(C(=O)NCc3ccccc3)c2C2CCN(C(=O)OC(C)(C)C)CC2)cc1` here?
Answer: inconclusive: 5.62 µM [inhibitor, full curve, poor fit]

Question: For `Cc1c(N=NC2=C(O)CC(C)(C)CC2=O)c(=O)n(-c2ccccc2)n1C`, which Potency is on record?
Answer: inactive

Question: With `Cc1ncc(/C=C2\C(=O)Nc3ccccc32)[nH]1` as the compound, how does the Potency read?
Answer: inconclusive: 31.6 µM [inhibitor, single point]

Question: Which Potency does the source give for `COc1ccc(-c2[nH]ncc2CN2CCC(N3CCSCC3)CC2)c(F)c1` here?
Answer: inconclusive: 35.5 µM [activator, single point]

Question: Which Potency does the source give for `Cc1nn(-c2ccccc2)c(Cl)c1C(=O)Nc1nnc(C2CCCCC2)s1` here?
Answer: inconclusive: 32.6 µM [inhibitor, single point]

Question: Which Potency does the source give for `Cc1cc(S(=O)(=O)Cc2noc(-c3c(C)noc3C)n2)c(C)cc1Cl` here?
Answer: inconclusive: 22.4 µM [inhibitor, partial curve, poor fit]

Question: Which Potency does the source give for `CCCC(=O)NCC(c1ccc2c(c1)OCO2)N1CCN(c2ccc(F)cc2)CC1` (stereo not drawn) here?
Answer: inconclusive: 25.1 µM [inhibitor, partial curve, poor fit]

Question: With `O=C(C1COc2ccccc2O1)N1CCN(c2ccc([N+](=O)[O-])cc2)CC1` (stereo not drawn) as the compound, how does the Potency read?
Answer: inactive

Question: Which Potency does the source give for `CCOC(=O)c1cc(COc2cc(Cl)cc(Cl)c2)on1` here?
Answer: inconclusive: 1.78 µM [activator, partial curve]

Question: Which Potency does the source give for `CCc1ccc(NC(=O)Cn2cnc3sc(C)c(S(=O)(=O)N4CCC(C)CC4)c3c2=O)cc1` here?
Answer: inactive

Question: For `CCc1cc(CNC(=O)c2cc(COc3ccc(C)nc3)on2)on1`, which Potency is on record?
Answer: inactive

Question: With `CNc1ccccc1C(=O)OCC(=O)c1ccccc1` as the compound, how does the Potency read?
Answer: inconclusive: 29.1 µM [activator, single point]

Question: Which Potency does the source give for `Cc1c(N=C/C=C2/N(C)c3ccccc3C2(C)C)c(=O)n(-c2ccccc2)n1C` here?
Answer: inactive and inconclusive: 6.31 µM [activator, single point]

Question: For `O=C1c2cccnc2C(=O)N1c1cccc(-c2nc3ccccc3o2)c1`, which Potency is on record?
Answer: inactive

Question: For `CCOC(=O)c1c(C)[nH]c(N=Nc2ccccc2)c1C`, which Potency is on record?
Answer: inconclusive: 6.31 µM [activator, single point]

Question: With `Cc1cc(O)c(C=Nc2ccc(N3CCOCC3)cc2)c(C)c1Cl` as the compound, how does the Potency read?
Answer: inconclusive: 8.91 µM [activator, partial curve, poor fit]

Question: Which Potency does the source give for `COc1ccc(/C=C/C(=O)O/N=C(\N)c2ccccn2)cc1OC` here?
Answer: inconclusive: 28.2 µM [inhibitor, single point]

Question: For `Cc1ccc(/C=C2\OC(=O)c3ccccc32)cc1`, which Potency is on record?
Answer: inconclusive: 2.31 µM [activator, full curve]

Question: For `COc1ccccc1C1c2ccc3ccccc3c2Oc2ncn(CCN(C)C)c(=N)c21` (stereo not drawn), which Potency is on record?
Answer: inconclusive: 5.01 µM [inhibitor, full curve, poor fit]

Question: For `C=CCN1CCN(C(=O)c2cc3c(s2)CCCC3)CC1`, which Potency is on record?
Answer: inactive

Question: For `c1ccc(CSc2ncccn2)cc1`, which Potency is on record?
Answer: inactive

Question: With `Cc1ccc(CN2CCC(CNc3ncnc4onc(-c5ccc(Cl)cc5)c34)CC2)cc1` as the compound, how does the Potency read?
Answer: inconclusive: 7.94 µM [inhibitor, partial curve, poor fit]

Question: Which Potency does the source give for `CCCN(C(=O)/C=C/c1ccc(S(=O)(=O)N(CC)CC)cc1)C1CCS(=O)(=O)C1` (stereo not drawn) here?
Answer: inconclusive: 11.2 µM [inhibitor, partial curve]

Question: For `N#C/C(=C\c1c(Oc2ccc(Cl)cc2)nc2ccccn2c1=O)C(=O)NC1CCS(=O)(=O)C1` (stereo not drawn), which Potency is on record?
Answer: active: 3.55 µM

Question: Which Potency does the source give for `COc1ccc(N(CC(=O)NC(C)c2ccccc2)S(=O)(=O)c2c(C)noc2C)cc1` (stereo not drawn) here?
Answer: inconclusive: 35.5 µM [activator, single point]

Question: With `CCCN(C(=O)c1cc2c(s1)-c1ccccc1SC2)c1ccccc1F` as the compound, how does the Potency read?
Answer: inconclusive: 17.8 µM [inhibitor, partial curve, poor fit]

Question: With `Cc1nnc(N2C(=O)c3cccc4cccc(c34)C2=O)s1` as the compound, how does the Potency read?
Answer: inconclusive: 3.55 µM [activator, partial curve, poor fit]

Question: For `Cc1cc2c(cc1S(=O)(=O)NCc1ccc(N(C)C)cc1)OCC(=O)N2`, which Potency is on record?
Answer: inactive

Question: With `COc1ccc(C(O)(CCC(C)C)C(CN2CCOCC2)c2ccc(Cl)cc2)cc1` (stereo not drawn) as the compound, how does the Potency read?
Answer: inconclusive: 5.62 µM [inhibitor, single point]

Question: For `Cc1csc(SCC(=O)Nc2ncc(Cl)c(C)c2Cl)n1`, which Potency is on record?
Answer: inactive

Question: With `CN(C)S(=O)(=O)c1cccc(NC(=O)CN2C(=O)NC(Cc3c[nH]c4ccccc34)C2=O)c1` (stereo not drawn) as the compound, how does the Potency read?
Answer: inactive

Question: Which Potency does the source give for `c1ccc(OCc2nc(-c3ccncc3)no2)cc1` here?
Answer: inconclusive: 14.1 µM [activator, single point]

Question: Which Potency does the source give for `CNc1nc(N)c(C(=O)Nc2cc(C)on2)s1` here?
Answer: inconclusive: 1.12 µM [activator, partial curve, poor fit]

Question: Which Potency does the source give for `Cc1c(CCO)c(=O)[nH]n1C(=O)c1c(F)cccc1F` here?
Answer: active: 4.11 µM

Question: With `CCOc1ccccc1CNC(=O)Nc1cn(CC(C)C)c(=O)c2ccccc12` as the compound, how does the Potency read?
Answer: inconclusive: 20 µM [inhibitor, partial curve, poor fit]

Question: With `c1ccc(C(OCCN2CCN(c3ncccn3)CC2)c2ccccc2)cc1` as the compound, how does the Potency read?
Answer: inconclusive: 35.5 µM [inhibitor, partial curve, poor fit]

Question: With `COc1ccccc1N1CCN(C(=O)c2nn(-c3ccccc3OC)c(=O)c3ccccc23)CC1` as the compound, how does the Potency read?
Answer: inactive

Question: With `O=S1(=O)CCC(NC(=S)N2CCOCC2)C1` (stereo not drawn) as the compound, how does the Potency read?
Answer: inconclusive: 13 µM [activator, partial curve, poor fit]

Question: With `Cc1ccc(-c2nnc(SCC(N)=O)n2C)cc1` as the compound, how does the Potency read?
Answer: inconclusive: 35.5 µM [activator, single point]

Question: With `CCCN(C(=O)CCl)C1=CCCCC1` as the compound, how does the Potency read?
Answer: inconclusive: 25.1 µM [inhibitor, single point]

Question: For `CC(=O)Nc1c2c(nn1-c1ccc(C)cc1C)CSC2`, which Potency is on record?
Answer: inactive

Question: For `CCN(CC)CCCC(C)n1c2nc(=O)[nH]c(=O)c-2nc2cc(Cl)ccc21` (stereo not drawn), which Potency is on record?
Answer: inconclusive: 7.08 µM [inhibitor, partial curve, poor fit]

Question: With `CCC(=O)Oc1ccc2c(C)cc(=O)oc2c1C(=O)CC` as the compound, how does the Potency read?
Answer: inconclusive: 7.94 µM [activator, full curve, poor fit]
